Results: patent US11840557B2, “Wnt7 variants capable of activating g-protein coupled receptor (Gpr)124/Reck/frizzled/lipoprotein receptor-related protein (LRP)-mediated Wnt signaling” (UNIVERSITÉ LIBRE DE BRUXELLES, priority 2018, dated 2023)
For part of these data: At least one structure is not confirmed: it was looked up by name or label, or the drawing left a doubt. Some entries share one result that the patent states for a list of compounds. Ends that are not written are not given here.

Legend:
Reck-CK-Fc = target: T1, Reck-CK-Fc (Homo sapiens, UniProt O95980); test: Single-molecule force spectroscopy (SMFS, FD-based AFM); assay type: binding; settings: PBS, RT, single-molecule level; read-out: dissociation constant (KD), SMFS
T1 construct: Reck is composed of five N-terminal cysteine-knot (CK) motifs; HA (N); made in house; host or cells: HEK293T (secreted; Protein G purified or concentrated supernatant)
T1 sequence (O95980 37-338 limits assumed): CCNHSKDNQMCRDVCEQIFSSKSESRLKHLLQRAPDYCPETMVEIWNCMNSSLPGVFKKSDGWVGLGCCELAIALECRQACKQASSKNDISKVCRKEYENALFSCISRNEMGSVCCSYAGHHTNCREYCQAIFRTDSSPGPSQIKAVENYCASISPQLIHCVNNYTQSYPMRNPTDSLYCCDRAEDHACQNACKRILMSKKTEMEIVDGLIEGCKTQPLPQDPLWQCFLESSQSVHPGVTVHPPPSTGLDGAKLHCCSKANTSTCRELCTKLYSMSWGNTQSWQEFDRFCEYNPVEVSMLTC

Gpr124/Reck/Fz/LRP = target: T2, Gpr124/Reck/Fz/LRP (UniProt O70421+O95980); test: STF dual luciferase assay, Gpr124/Reck-dependent signaling in HEK293-STF cells; assay type: cell-based; settings: single residue variants
T2 construct: host or cells: HEK293-STF cells
Protocol: Cells were plated into 96-well plates and transfected after 24 h in triplicate with Lipofectamine 2000 (Life Technologies, Carlsbad, Calif.). The amount of plasmid DNA transfected per well was optimized for each expression vector: Renilla luciferase (0.5 ng) (was kindly provided by Jeremy Nathans (John Hopkins)), Wnt ligands (20 ng), Fz receptors (5 ng), Lrp (2.5 ng), Gpr124 (10 ng), Reck (5 ng) and Dkk-1 (10 ng) unless otherwise indicated. The total amount of DNA was adjusted to 100 ng per well with the empty pCS2 vector. Dual luciferase assays were performed using the STF cell line or by co-transfecting 20 ng of M50 Super 8× TOPFlash plasmid (Addgene plasmid #12456). Cells were harvested in passive lysis buffer (E1960, Promega, Wis.) and the activities of the Firefly and Renilla luciferases were measured sequentially using the Dual-Luciferase Reporter Assay system (E1960, Promega, Madison, Wis.) 48 h post-transfection. The competition assays of FIG. 1C were performed by plating cells as a 1:1:1 mixture at 90% confluency in 96-well plates 24 h after transfection. Luciferase activity was measured 24 h after co-culture.
Cells were plated into 96-well plates and transfected after 24 h in triplicate with Lipofectamine 2000 (Invitrogen, Carlsbad, Calif.). The amount of plasmid DNA transfected per well was optimized for each expression vector: Renilla luciferase (0.5 ng), Wnt (20 ng), Fz (5 ng), LRP (2.5 ng), Gpr124 (10 ng), Reck (10 ng) unless otherwise indicated. The total amount of DNA was adjusted to 100 ng per well with the empty pCS2 vector. Cells were harvested in passive lysis buffer (E1960, Promega, Wisconsin) and the activities of the Firefly and Renilla luciferases were measured sequentially using the Dual-Luciferase Reporter Assay system (E1960, Promega, Madison, Wis.) 48 h post-transfection.

| Molecule | Kd (Reck-CK-Fc) | Gpr124/Reck/Fz/LRP-mediated Wnt signaling activity, % of wild-type mature full-length Wnt7a (Gpr124/Reck/Fz/LRP) |
| --- | --- | --- |
| VEVVRASRLRQPTFLRIKQLRSYQKPMET [pWnt7b] | 5 µM |  |
| I59A: single-residue variant of full-length mWnt7a (precursor numbering) (protein) MNRKARRCLGHLFLSLGMVYLRIGGFSSVVALGASIICNKIPGLAPRQRAICQSRPDAAIVIGEGSQMGLDECQFQFRNGRWNCSALGERTVFGKELKVGSREAAFTYAIIAAGVAHAITAACTQGNLSDCGCDKEKQGQYHRDEGWKWGGCSADIRYGIGFAKVFVDAREIKQNARTLMNLHNNEAGRKILEENMKLECKCHGVSGSCTTKTCWTTLPQFRELGYVLKDKYNEAVHVEPVRASRNKRPTFLKIKKPLSYRKPMDTDLVYIEKSPNYCEEDPVTGSVGTQGRACNKTAPQASGCDLMCCGRGYNTHQYARVWQCNCKFHWCCYVKCNTCSERTEMYTCK |  | at least 70% |
| E64A: single-residue variant of full-length mWnt7a (precursor numbering) (protein) MNRKARRCLGHLFLSLGMVYLRIGGFSSVVALGASIICNKIPGLAPRQRAICQSRPDAIIVIGAGSQMGLDECQFQFRNGRWNCSALGERTVFGKELKVGSREAAFTYAIIAAGVAHAITAACTQGNLSDCGCDKEKQGQYHRDEGWKWGGCSADIRYGIGFAKVFVDAREIKQNARTLMNLHNNEAGRKILEENMKLECKCHGVSGSCTTKTCWTTLPQFRELGYVLKDKYNEAVHVEPVRASRNKRPTFLKIKKPLSYRKPMDTDLVYIEKSPNYCEEDPVTGSVGTQGRACNKTAPQASGCDLMCCGRGYNTHQYARVWQCNCKFHWCCYVKCNTCSERTEMYTCK |  | at least 70% |
| M68A: single-residue variant of full-length mWnt7a (precursor numbering) (protein) MNRKARRCLGHLFLSLGMVYLRIGGFSSVVALGASIICNKIPGLAPRQRAICQSRPDAIIVIGEGSQAGLDECQFQFRNGRWNCSALGERTVFGKELKVGSREAAFTYAIIAAGVAHAITAACTQGNLSDCGCDKEKQGQYHRDEGWKWGGCSADIRYGIGFAKVFVDAREIKQNARTLMNLHNNEAGRKILEENMKLECKCHGVSGSCTTKTCWTTLPQFRELGYVLKDKYNEAVHVEPVRASRNKRPTFLKIKKPLSYRKPMDTDLVYIEKSPNYCEEDPVTGSVGTQGRACNKTAPQASGCDLMCCGRGYNTHQYARVWQCNCKFHWCCYVKCNTCSERTEMYTCK |  | at least 70% |
| L70A: single-residue variant of full-length mWnt7a (precursor numbering) (protein) MNRKARRCLGHLFLSLGMVYLRIGGFSSVVALGASIICNKIPGLAPRQRAICQSRPDAIIVIGEGSQMGADECQFQFRNGRWNCSALGERTVFGKELKVGSREAAFTYAIIAAGVAHAITAACTQGNLSDCGCDKEKQGQYHRDEGWKWGGCSADIRYGIGFAKVFVDAREIKQNARTLMNLHNNEAGRKILEENMKLECKCHGVSGSCTTKTCWTTLPQFRELGYVLKDKYNEAVHVEPVRASRNKRPTFLKIKKPLSYRKPMDTDLVYIEKSPNYCEEDPVTGSVGTQGRACNKTAPQASGCDLMCCGRGYNTHQYARVWQCNCKFHWCCYVKCNTCSERTEMYTCK |  | at least 70% |
| E72A: single-residue variant of full-length mWnt7a (precursor numbering) (protein) MNRKARRCLGHLFLSLGMVYLRIGGFSSVVALGASIICNKIPGLAPRQRAICQSRPDAIIVIGEGSQMGLDACQFQFRNGRWNCSALGERTVFGKELKVGSREAAFTYAIIAAGVAHAITAACTQGNLSDCGCDKEKQGQYHRDEGWKWGGCSADIRYGIGFAKVFVDAREIKQNARTLMNLHNNEAGRKILEENMKLECKCHGVSGSCTTKTCWTTLPQFRELGYVLKDKYNEAVHVEPVRASRNKRPTFLKIKKPLSYRKPMDTDLVYIEKSPNYCEEDPVTGSVGTQGRACNKTAPQASGCDLMCCGRGYNTHQYARVWQCNCKFHWCCYVKCNTCSERTEMYTCK |  | at least 70% |
